In patent publication US20230088461A1:

B1: huLIC19309a CAR (protein)
chain: DIVMTQSPDSLAVSLGERATINCRSSQTIVHSNGNTYLEWYQQKPGQPPKLLIYKVSNRFSGVPDRFSGSGSGTDFTLTISSLQAEDVAVYYCFQVSHVPYTFGGGTKLEIKGSTSGSGKPGSGEGSTKGQVQLVQSGAEVKKPGASVKVSCKASGYTFTDYEMHWVRQAPGQRLEWMGGIDPETGNTAYSQKFKGRVTITRDTSASTAYMELSSLRSEDTAVYYCARYYSFAYWGQGTLVTVSSTSTTTPAPRPPTPAPTIASQPLSLRPEACRPAAGGAVHTRGLDFACDIYIWAPLAGTCGVLLLSLVITLYCKRGRKKLLYIFKQPFMRPVQTTQEEDGCSCRFPEEEEGGCELRVKFSRSADAPAYQQGQNQLYNELNLGRREEYDVLDKRRGRDPEMGGKPRRKNPQEGLYNELQKDKMAEAYSEIGMKGERRRGKGHDGLYQGLSTATKDTYDALHMQALPPR
B2: huLIC19309b CAR (protein)
chain: DIVMTQSPLSLPVTPGEPASISCRSSQTIVHSNGNTYLEWYLQKPGQSPQLLIYKVSNRFSGVPDRFSGSGSGTDFTLKISRVEAEDVGVYYCFQVSHVPYTFGGGTKLEIKGSTSGSGKPGSGEGSTKGQVQLVQSGAEVKKPGASVKVSCKASGYTFTDYEMHWVRQATGQGLEWMGGIDPETGNTAYSQKFKGRVTMTRNTSISTAYMELSSLRSEDTAVYYCARYYSFAYWGQGTLVTVSSTSTTTPAPRPPTPAPTIASQPLSLRPEACRPAAGGAVHTRGLDFACDIYIWAPLAGTCGVLLLSLVITLYCKRGRKKLLYIFKQPFMRPVQTTQEEDGCSCRFPEEEEGGCELRVKFSRSADAPAYQQGQNQLYNELNLGRREEYDVLDKRRGRDPEMGGKPRRKNPQEGLYNELQKDKMAEAYSEIGMKGERRRGKGHDGLYQGLSTATKDTYDALHMQALPPR

Molecular target: GPC3 on GPC3 positive human hepatocellular carcinoma cell lines (HepG2, Huh7, PLC/PRF/5) (human), P51654
Experiment: cell-based or functional assay

Row | Binder | IFN-γ release (HTRF) after 20 h co-culture with HepG2 cells, E/T 3:1 | TNF-α release (HTRF) after 20 h co-culture with HepG2 cells, E/T 3:1 | cytotoxicity on HepG2 cells, E/T 3:1 | cytotoxicity on Huh7 cells, E/T 3:1 | cytotoxicity on PLC/PRF/5 cells, E/T 3:1
1 | B1 | 31000 µg/mL | 5450 µg/mL | 93.8% | 97.5% | 73.5%
2 | B2 | 24800 µg/mL | 6080 µg/mL | 97% | 94.1% | 72.2%
